This note sets out measurements from PubChem BioAssay AID1487 (National Center for Advancing Translational Sciences (NCATS), 2009).

The other results are listed elsewhere or left out. The main result of the screen is listed elsewhere. These columns were measured beside it and carry no call. Compounds called inactive in the main read-out are mostly missing here. The note in brackets gives the kind of curve behind each potency; many fits are weak.

The test in a line: qHTS Assay for Modulators of Lamin A Splicing. Conditions: HeLa LMNA splicing GFP/RFP minigene ratio, 48 h. In short, it runs like this: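 S3 HeLa stable clones carrying a lamin A-EGFP splicing minigene plus DsRed2 were seeded at 600 cells/well in Opti-MEM with 2% FBS, pin-dosed and incubated 48 h at 37°C. Acumen cytometry (488 nm) gave the GFP/RFP total-intensity ratio.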
On the technique in general: qHTS replaces the single test concentration by a dilution series.

Where [1] appears, read: measured here: GFP splicing reporter channel.
The mark [2] stands for this setting: measured here: RFP viability control channel.

In general, AC50 refers to the concentration giving half of the maximal activity seen. Regarding `Cn1c(=O)c2c(SCC(=O)NCc3ccco3)nc(-c3ccccc3)nc2n(C)c1=O`, the AC50 is 0.398 µM [rising, full curve, poor fit] under setting [1] and 0.708 µM [rising, full curve, poor fit] under setting [2].

Consider `Cc1ccc(S(=O)(=O)N2CCCOC2CNC(=O)C(=O)NCCCn2ccnc2)cc1` (centres undefined), for which, under setting [1], the concentration at half-maximal activity (AC50) is 0.00501 µM [falling, full curve, poor fit].

On to `CCn1cc(C(=O)OCC(=O)NCc2ccccc2Cl)c(=O)c2ccc(C)nc21`, for which the concentration at half-maximal activity (AC50) under setting [2] is 0.0224 µM [falling, full curve, poor fit].

As for `Clc1ccccc1-c1ccc2ncnc(NC3CCNCC3)c2c1`, under setting [1], the AC50 is 11.2 µM [falling, partial curve, poor fit].

As to `O=c1c(-c2ccc(Cl)cc2)coc2c(CN3CCOCC3)c(O)ccc12`, the concentration at half-maximal activity (AC50) under setting [1] was 0.0141 µM [rising, full curve, poor fit].

As to `CCNc1nc2nc3ccc(C)cn3c(=O)c2cc1C(=O)NCC1CCCO1` (centres undefined), the AC50 under setting [1] was 0.00316 µM [rising, full curve, poor fit].

Regarding `O=C(O)Cc1ccc(-c2ccccc2)cc1`, the AC50 is, setting by setting: under setting [1], 1.26 µM [falling, single point]; under setting [2], 2.51 µM [falling, single point].

Consider `CNc1nc(N2CCc3ccccc32)ncc1F`, for which the AC50 is 4.47 µM [falling, partial curve] under setting [1] and 5.01 µM [falling, partial curve, poor fit] under setting [2].

With `Cc1ccc(-c2cc3c(n2-c2ccc(C(=O)O)cc2)CCCC3=O)cc1`, the AC50 under setting [2] was 20 µM [rising, single point].

Turning to `Cc1ccccc1C(=O)NC(=S)Nc1ccccc1N1CCCC1`, the concentration at half-maximal activity (AC50) is, setting by setting: under setting [1], 14.1 µM [rising, single point]; under setting [2], 35.5 µM [rising, single point].

As to `CCOC(=O)c1cc([N+](=O)[O-])sc1NC(=O)CC`, the AC50 reads like this: under setting [1], 20 µM [falling, partial curve, poor fit]; under setting [2], 35.5 µM [falling, partial curve, poor fit].

On to `C=CCNC(=O)c1ccccc1NC(=O)C1COc2ccccc2O1` (centres undefined), for which, under setting [2], the concentration at half-maximal activity (AC50) is 3.55 µM [falling, full curve].

Turning to `CSc1nc2ccc(NC(=O)c3nn(C(C)C)c(=O)c4ccccc34)cc2s1`, the AC50 was 0.00316 µM [falling, full curve] under setting [1] and 0.00501 µM [falling, full curve, poor fit] under setting [2].

Take `CCN=c1scc(-c2ccc3c(c2)NC(=O)CO3)n1N=C1CCCC1`: under setting [2], the AC50 is 4.47 µM [rising, full curve].

Consider `CC1CCn2c(nc3cc(C(=O)NCCc4ccc(Cl)cc4)ccc32)C1` (centres undefined), for which the half-maximal activity concentration (AC50) under setting [1] was 14.1 µM [falling, partial curve, poor fit].

As for `CCOC(=O)N1CCN(C(=O)c2ccc3c(=O)n(CCC4=CCCCC4)c(=O)[nH]c3c2)CC1`, the half-maximal activity concentration (AC50) reads like this: under setting [1], 12.6 µM [rising, partial curve]; under setting [2], 31.6 µM [rising, single point].

`CCOC(=S)SCC(=O)N1CCc2cc(OC)ccc2C1C1C(=O)CCCC1=O` (centres undefined): the half-maximal activity concentration (AC50) reads like this: under setting [1], 0.0562 µM [rising, partial curve, poor fit]; under setting [2], 0.0794 µM [rising, full curve, poor fit].

Turning to `CC(=O)c1ccc(OCC(O)COc2ccc(C(C)=O)cc2)cc1`, the AC50 is, setting by setting: under setting [1], 8.91 µM [rising, partial curve]; under setting [2], 11.2 µM [rising, single point].

For `Cc1cc(C)nc(N/N=C/c2sccc2C)n1`, under setting [2], the AC50 was 2 µM [rising, partial curve, poor fit].

`CCOC(=O)C1=C2c3ccc4ccccc4c3CC(C)(C)N2C(=O)C1=O`: the concentration at half-maximal activity (AC50) under setting [1] is 15.8 µM [rising, single point] and the AC50 under setting [2] was 25.1 µM [rising, single point].

Consider `C=CCn1c(Oc2ccccc2)nc2c1c(=O)n(C)c(=O)n2C`, for which the AC50 under setting [1] is 1.26 µM [falling, partial curve, poor fit].

Take `COc1cc(Cl)c(C)cc1NC(=O)CSc1nnc(-c2ccco2)n1CC(C)C`: the half-maximal activity concentration (AC50) under setting [1] is 15.8 µM [rising, single point] and the half-maximal activity concentration (AC50) under setting [2] is 31.6 µM [rising, single point].

As for `COc1ccc(NC(=O)c2ccc(NC(=O)C(C)C)cc2)c([N+](=O)[O-])c1`, the AC50 under setting [2] is 0.178 µM [rising, full curve, poor fit].

As to `CCCCCC(=O)NNC(=O)c1c(O)c2ccccc2n(CC)c1=O`, the AC50 reads like this: under setting [1], 2.51 µM [falling, single point]; under setting [2], 2.24 µM [falling, full curve, poor fit].

Regarding `CC(C)(C)c1ccc(OCCNC(=O)Cc2ccc(F)cc2)cc1`, the AC50 under setting [1] is 31.6 µM [rising, single point] and the AC50 under setting [2] was 31.6 µM [rising, single point].

Consider `CC(=O)N1N=C(c2ccc3ccccc3c2)OC1(C)C`, for which the half-maximal activity concentration (AC50) under setting [2] was 25.1 µM [rising, single point].

Take `COc1ccccc1/C=C1\CCCC2=C1Nc1nnnn1C2c1ccccc1OC` (centres undefined): the concentration at half-maximal activity (AC50) is, setting by setting: under setting [1], 12.6 µM [rising, single point]; under setting [2], 25.1 µM [rising, single point].

As to `C/C(=N\N=C(N)N)c1cc(Cl)ccc1Cl`, the half-maximal activity concentration (AC50) under setting [1] was 17.8 µM [falling, partial curve, poor fit].

With `NC/C(=N\O)c1ccc(Cl)cc1Cl`, the AC50 under setting [2] is 1.78 µM [rising, partial curve].

Take `COc1ccccc1NS(=O)(=O)c1cc(NC(=O)CCC(=O)c2cccs2)ccc1Cl`: the AC50 is, setting by setting: under setting [1], 31.6 µM [rising, single point]; under setting [2], 35.5 µM [rising, single point].

With `Cc1ccccc1NC(=O)C1CCN(c2cc(-c3ccccc3)nc3ncnn23)CC1`, under setting [2], the AC50 is 14.1 µM [rising, partial curve].

As to `CCCCN(CC)C(=S)Nc1ccc2nc3n(c(=O)c2c1)CCCCC3`, under setting [2], the AC50 was 0.00794 µM [rising, full curve, poor fit].

As to `COC(=O)c1ccc(OCC2c3cc(OC)c(OC)cc3CCN2C(=O)COc2ccc(Cl)cc2)cc1` (centres undefined), under setting [2], the AC50 was 0.00447 µM [falling, full curve, poor fit].

As for `NC(=O)c1ccc(N2CCN(c3ccc(O)cc3)CC2)c([N+](=O)[O-])c1`, under setting [1], the AC50 was 10 µM [falling, partial curve, poor fit].
